This is an account of results in paper PMC3914767.

Amino acid sequences for entries named in this document (tags omitted). A change or cut given only in a name is not applied to a line headed by its entry.
UniProt Q9NQU5: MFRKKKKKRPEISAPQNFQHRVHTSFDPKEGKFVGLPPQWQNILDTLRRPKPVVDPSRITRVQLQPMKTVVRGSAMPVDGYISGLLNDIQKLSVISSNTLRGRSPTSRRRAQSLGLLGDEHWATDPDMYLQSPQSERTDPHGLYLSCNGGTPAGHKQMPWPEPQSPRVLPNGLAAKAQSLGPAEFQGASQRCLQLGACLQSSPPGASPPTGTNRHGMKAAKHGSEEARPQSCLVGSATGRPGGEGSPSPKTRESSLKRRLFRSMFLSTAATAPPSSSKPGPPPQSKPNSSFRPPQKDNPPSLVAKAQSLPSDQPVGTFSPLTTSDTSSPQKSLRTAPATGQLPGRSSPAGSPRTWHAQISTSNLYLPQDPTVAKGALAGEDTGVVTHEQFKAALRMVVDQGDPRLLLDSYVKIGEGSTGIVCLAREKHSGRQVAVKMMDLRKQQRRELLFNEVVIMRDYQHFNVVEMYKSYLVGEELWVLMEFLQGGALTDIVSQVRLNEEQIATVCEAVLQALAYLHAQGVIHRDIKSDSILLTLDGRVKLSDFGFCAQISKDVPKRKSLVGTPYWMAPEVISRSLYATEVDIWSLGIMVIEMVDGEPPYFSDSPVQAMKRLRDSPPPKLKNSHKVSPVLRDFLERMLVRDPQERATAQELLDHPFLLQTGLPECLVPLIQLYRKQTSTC
UniProt P29311: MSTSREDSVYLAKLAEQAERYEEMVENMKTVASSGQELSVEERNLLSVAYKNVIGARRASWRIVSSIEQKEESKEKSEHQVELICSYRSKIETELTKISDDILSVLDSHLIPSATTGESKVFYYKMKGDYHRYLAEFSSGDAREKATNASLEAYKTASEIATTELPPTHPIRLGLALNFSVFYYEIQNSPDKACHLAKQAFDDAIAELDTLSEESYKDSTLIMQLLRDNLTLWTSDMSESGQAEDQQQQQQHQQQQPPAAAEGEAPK

These are yes or no findings as the source states them, for the method shown. Binding calls can cover weak binding; strength is not graded here.

For the experiment, the target named is PAK6-GFP mutated at Thr99 (human) (UniProt Q9NQU5). As to the kind of experiment: far-Western, overlay or dot blot; PAK-GFP proteins isolated with GFP-Trap from lysates of transfected HEK293 cells (in 10% serum, or serum-starved 10 h and stimulated with PMA 100 nM 30 min), blotted and probed with digoxygenin-labelled 14-3-3 (mix of yeast BMH1 and BMH2) in place of a primary antibody; both purified.

In the case of “digoxygenin-labelled 14-3-3 (a mix of the Saccharomyces cerevisiae BMH1 and BMH2 14-3-3 isoforms) (from UniProt P29311 1-267; P34730 1-273)”, the binding result is recorded as “binds”.
